Experimental data published in publication PMC6954211.
Changes are numbered by the printed parent chain. These are yes or no findings as the source states them, for the method shown. For some of these results: In cells and extracts the contact can be indirect. Some results given as binding are weak or reduced against the parent protein; the word gives no strength. Where a sequence is shown, tags or fusion partners need not be part of it.

T1: GST-PHD(C162S) (Arabidopsis) (UniProt Q680Q4)
T1 sequence: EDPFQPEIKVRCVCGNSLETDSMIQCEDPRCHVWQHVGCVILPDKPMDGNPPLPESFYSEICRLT

T2: GST-PHD (PHD finger of Arabidopsis SIZ1 fused to GST) (Arabidopsis) (UniProt Q680Q4)
T2 sequence: T1 sequence with S59C

T3: SIZ1-FLAG (full-length Arabidopsis SIZ1 with FLAG and His tags) (Arabidopsis) (UniProt Q680Q4)
T3 sequence: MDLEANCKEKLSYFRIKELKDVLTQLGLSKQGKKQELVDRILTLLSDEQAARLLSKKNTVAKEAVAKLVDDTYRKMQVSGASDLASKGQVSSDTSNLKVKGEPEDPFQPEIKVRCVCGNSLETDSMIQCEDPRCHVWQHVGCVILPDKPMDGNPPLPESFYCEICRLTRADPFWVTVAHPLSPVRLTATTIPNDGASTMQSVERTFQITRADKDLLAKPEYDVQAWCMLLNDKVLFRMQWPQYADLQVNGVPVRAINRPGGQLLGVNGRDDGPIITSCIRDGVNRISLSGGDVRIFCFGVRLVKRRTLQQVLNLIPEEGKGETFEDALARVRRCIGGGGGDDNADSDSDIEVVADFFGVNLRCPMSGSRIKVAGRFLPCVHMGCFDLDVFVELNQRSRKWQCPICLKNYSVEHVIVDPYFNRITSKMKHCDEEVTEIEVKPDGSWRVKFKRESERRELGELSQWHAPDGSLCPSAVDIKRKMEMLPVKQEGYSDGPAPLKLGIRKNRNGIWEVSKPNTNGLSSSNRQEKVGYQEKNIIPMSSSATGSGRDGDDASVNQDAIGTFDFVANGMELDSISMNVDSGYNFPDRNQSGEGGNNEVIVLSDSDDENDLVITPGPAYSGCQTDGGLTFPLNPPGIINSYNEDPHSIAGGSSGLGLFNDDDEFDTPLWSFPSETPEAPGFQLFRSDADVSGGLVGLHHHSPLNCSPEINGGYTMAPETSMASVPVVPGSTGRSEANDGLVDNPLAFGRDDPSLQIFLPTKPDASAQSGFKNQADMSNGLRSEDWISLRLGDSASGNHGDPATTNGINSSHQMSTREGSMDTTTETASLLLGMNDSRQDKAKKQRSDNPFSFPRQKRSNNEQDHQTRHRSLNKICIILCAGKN

T4: SIZ1(C162S)-FLAG (Arabidopsis) (UniProt Q680Q4)
T4 sequence: T3 sequence with C162S

B1: MBP-ATX1SET (SET domain of ATX1 fused with maltose-binding protein) (domain or fragment, UniProt Q9C5X4 898-1016)
chain: KRLAFGKSGIHGFGIFAKLPHRAGDMMIEYTGELVRPSIADKREQLIYNSMVGAGTYMFRIDDERVIDATRTGSIAHLINHSCVPNCYSRVITVNGDEHIIIFAKRHIPKWEELTYDYR
B2: MBP-ATX2SET (SET domain of ATX2 fused with maltose-binding protein) (domain or fragment, UniProt P0CB22 919-1037)
chain: B1 chain with M27V, S38P, Q45H, D63N, V84E, T93S, H107D, I108V, P109A
B3: MBP-ATX4SET (SET domain of ATX4 fused with maltose-binding protein) (domain or fragment, UniProt Q9SUE7 885-1002)
chain: DRVCFGRSGIHGWGLFARRNIQEGEMVLEYRGEQVRGSIADLREARYRRVGKDCYLFKISEEVVVDATDKGNIARLINHSCTPNCYARIMSVGDEESRIVLIAKANVAVGEELTYDYL
B4: MBP-ATX5SET (SET domain of ATX5 fused with maltose-binding protein) (domain or fragment, UniProt Q8GZ42 901-1018)
chain: B3 chain with D1E, S38I, V50E, D69E, T82M, E95D, A105T, N106T, V109S, G110C
B5: ATX1-RAP (full-length Arabidopsis ATX1 with RAP and His tags) (protein, UniProt Q9C5X4 1-1062)
chain: MACFSNETQIEIDVHDLVEAPIRYDSIESIYSIPSSALCCVNAVGSHSLMSKKVKAQKLPMIEQFEIEGSGVSASDDCCRSDDYKLRIQRPEIVRVYYRRRKRPLRECLLDQAVAVKTESVELDEIDCFEEKKRRKIGNCELVKSGMESIGLRRCKENNAFSGNKQNGSSRRKGSSSKNQDKATLASRSAKKWVRLSYDGVDPTSFIGLQCKVFWPLDALWYEGSIVGYSAERKRYTVKYRDGCDEDIVFDREMIKFLVSREEMELLHLKFCTSNVTVDGRDYDEMVVLAATLDECQDFEPGDIVWAKLAGHAMWPAVIVDESIIGERKGLNNKVSGGGSLLVQFFGTHDFARIKVKQAISFIKGLLSPSHLKCKQPRFEEGMQEAKMYLKAHRLPERMSQLQKGADSVDSDMANSTEEGNSGGDLLNDGEVWLRPTEHVDFRHIIGDLLIINLGKVVTDSQFFKDENHIWPEGYTAMRKFTSLTDHSASALYKMEVLRDAETKTHPLFIVTADSGEQFKGPTPSACWNKIYNRIKKVQNSDSPNILGEELNGSGTDMFGLSNPEVIKLVQDLSKSRPSSHVSMCKNSLGRHQNQPTGYRPVRVDWKDLDKCNVCHMDEEYENNLFLQCDKCRMMVHAKCYGELEPCDGALWLCNLCRPGAPDMPPRCCLCPVVGGAMKPTTDGRWAHLACAIWIPETCLSDVKKMEPIDGVNKVSKDRWKLMCTICGVSYGACIQCSNNSCRVAYHPLCARAAGLCVELENDMSVEGEEADQCIRMLSFCKRHRQTSTACLGSEDRIKSATHKTSEYLPPPNPSGCARTEPYNCFGRRGRKEPEALAAASSKRLFVENQPYVIGGYSRLEFSTYKSIHGSKVSQMNTPSNILSMAEKYRYMRETYRKRLAFGKSGIHGFGIFAKLPHRAGDMMIEYTGELVRPSIADKREQLIYNSMVGAGTYMFRIDDERVIDATRTGSIAHLINHSCVPNCYSRVITVNGDEHIIIFAKRHIPKWEELTYDYRFFSIGERLSCSCGFPGCRGVVNDTEAEEQHAKICVPRCDLIDWTAE

Tests used:
[1] = biological target: T1, GST-PHD(C162S) (Arabidopsis); experiment: pull-down; 1 µg GST-PHD or GST-PHD(C162S) and 1 µg MBP-ATXSET incubated overnight in 300 µL peptide-binding buffer (50 mM Tris-HCl pH 7.5, 150 mM NaCl, 0.1% NP-40); pulled down with glutathione Sepharose beads; blot with anti-MBP; both purified
[2] = biological target: T2, GST-PHD (PHD finger of Arabidopsis SIZ1 fused to GST) (Arabidopsis); experiment: as above
[3] = biological target: T3, SIZ1-FLAG (full-length Arabidopsis SIZ1 with FLAG and His tags) (Arabidopsis); experiment: co-IP; SIZ1-FH or SIZ1(C162S)-FH and ATX1-RH transiently expressed in N. benthamiana; soluble protein in lysis buffer; immunoprecipitated with anti-DYKDDDDK magnetic beads; blot with anti-RAP tag antibody (PMab2)
[4] = biological target: T4, SIZ1(C162S)-FLAG (Arabidopsis); experiment: as above

binding [1] | binding [2] | binding [3] | binding [4] | Binder
binds | binds | – | – | B1
binds | binds | – | – | B2
binds | binds | – | – | B3
binds | binds | – | – | B4
– | – | binds | binds | B5
